The results in this text go back to PubChem BioAssay AID2685 (National Center for Advancing Translational Sciences (NCATS), 2010).

This test in a line: qHTS Assay for Lipid Storage Modulators in Drosophila S3 Cells.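 As to cell number change: cells counted by Cell Tracker Red CMTPX staining in the red channel.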 The following applies: BODIPY lipid droplet fluorescence, 18-24 h; for cell number change: measured here: cell count max response, cells fed with added oleic acid. The method in brief:
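Laser-scanning cytometry quantifies lipid droplet accumulation (500–530 nm total intensity; droplet/cell object ratio) in oleic acid-fed (400 uM added) Drosophila S3 cells treated with a concentration series. 20 uM Triacsin C defined 100% inhibition.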
(In general: Quantitative high-throughput screening tests each substance at several concentrations.)

Where [1] appears, read: measured here: lipid fluorescence (Fed channel) AC50, cells fed with added oleic acid.
[2] abbreviates: measured here: cell number channel AC50, cells fed with added oleic acid.

Some of the results follow. Shown are side measurements of this screen, not its main read-out; they come without a call. Compounds called inactive in the main read-out are mostly missing here. Words in brackets tell the shape of the fitted curve; partial curves, single points and poor fits give uncertain potencies.

Turning to `COc1cccc(NC(=O)CN(C)C(=O)Cn2[nH]c(=O)c3ccccc3c2=O)c1`, the cell number change was -18.6%. For the same molecule, the AC50 under setting [1] was 0.13 µM [falling, full curve, poor fit].

Regarding `O=c1c2cccnc2[nH]c(=S)n1CCCN1CCN(c2ccc(F)cc2)CC1`, the cell number change is -28.9%.

For the molecule `CCOC(=O)CSc1nnc(Cc2ccccc2)n1Cc1ccco1`, the cell number change is -19.3%. In addition, the AC50 under setting [2] was 0.731 µM [falling, full curve, poor fit].

Turning to `COc1ccc(C(C)=O)cc1COC(=O)Cc1n[nH]c(=O)c2ccccc12`, the cell number change amounted to 26.1%. Moreover, the AC50 under setting [1] is 1.03 µM [rising, partial curve, poor fit].

`N#Cc1nc(Cc2ccccc2)oc1N1CCN(c2ccccc2)CC1`: the cell number change was -9.42%.

`S=c1[nH]nc(C2CCCCC2)n1/N=C/c1ccc(Br)cc1`: the cell number change is -52%. The half-maximal activity concentration (AC50) under setting [2] was 14.6 µM [falling, partial curve]. Also, the half-maximal activity concentration (AC50) under setting [1] is 16.4 µM [falling, partial curve].

For `O=C(NCc1cc(C(F)(F)F)cc(C(F)(F)F)c1)C1CC(c2cccc([N+](=O)[O-])c2)=NO1` (centres undefined), under setting [2], the AC50 is 5.8 µM [falling, single point].

Regarding `COC(=O)NNC(=O)C12CC3CC(CC(C3)C1)C2`, the cell number change was -11.2%.

For `COc1nnc(-c2ccc(C)c(S(=O)(=O)N(C)C)c2)c2ccccc12`, the cell number change was -19.6%. For the same molecule, the AC50 under setting [1] is 18.4 µM [falling, partial curve].

As to `CCOc1ccc2[nH]c(=O)c(CN(Cc3ccccc3OC)C(=O)c3ccccc3)cc2c1`, the cell number change came to 35.3%. Besides, under setting [2], the AC50 was 20.6 µM [rising, single point]. Under setting [1], the AC50 was 16.4 µM [rising, partial curve].

In the case of `CC(Sc1nc2cc(Cl)ccc2s1)C(=O)Nc1cccc(S(=O)(=O)N2CCOCC2)c1` (centres undefined), the concentration at half-maximal activity (AC50) under setting [1] was 29.1 µM [falling, single point].

Take `Cc1ccc(S(=O)(=O)/N=C/c2ccco2)cc1`: the cell number change was 0.172%. Moreover, the half-maximal activity concentration (AC50) under setting [1] was 10.3 µM [rising, partial curve].

On to `O=C(CSC1=NC(=O)C(c2ccccc2)C(=O)N1)Nc1cccc(Cl)c1` (centres undefined), for which the cell number change is -101%. Further, the concentration at half-maximal activity (AC50) under setting [2] was 25.9 µM [falling, single point]. For the same molecule, under setting [1], the AC50 is 23.1 µM [falling, single point].

For `O=C(NCc1ccccc1)NC(=O)c1ccccc1F`, the cell number change is -18.3%. Further, the concentration at half-maximal activity (AC50) under setting [1] is 29.1 µM [rising, single point].

`Cc1ccc(NC(=S)Nn2cnnc2)c(C)c1`: the cell number change is 25.7%. Also, under setting [1], the half-maximal activity concentration (AC50) was 6.51 µM [rising, single point].

For the molecule `O=S(=O)(NCc1csc(-c2cccnc2)n1)c1ccc(F)cc1`, the cell number change is -22.6%. In addition, under setting [1], the AC50 was 23.1 µM [falling, single point].

For `Cn1c(-c2nonc2N)nc2ccccc21`, under setting [1], the AC50 was 6.51 µM [rising, partial curve].

In the case of `CCOC(=O)c1[nH]cnc1C(=O)Nc1ccncc1`, the cell number change was 12.6%. The concentration at half-maximal activity (AC50) under setting [1] was 0.058 µM [rising, full curve, poor fit].

Consider `O=[N+]([O-])c1ccc(/C=C/c2ccc3cccc(O)c3n2)cc1`, for which the cell number change is -20.3%. In addition, the concentration at half-maximal activity (AC50) under setting [1] was 18.4 µM [falling, single point].

As to `CCn1nnnc1NCc1c(OC)ccc2ccccc12`, the cell number change worked out at 19.4%. Moreover, the AC50 under setting [2] was 0.0326 µM [rising, full curve, poor fit].

Consider `COc1ccc(N2CCN(c3ncnc4scc(-c5ccccc5)c34)CC2)cc1`, for which the cell number change was -22.4%. Also, under setting [1], the AC50 is 35.5 µM [falling, single point].

On to `Cc1cccc(NC(=O)CCCSc2nc3ccccc3[nH]2)c1`, for which the cell number change came to 2.5%. The AC50 under setting [1] is 0.206 µM [falling, full curve, poor fit].

For the molecule `C#CC(C)(CC)NC(=O)c1cc2nc(C3CC3)cc(C(F)(F)F)n2n1` (centres undefined), the AC50 under setting [1] is 0.13 µM [rising, full curve, poor fit].

In the case of `O=C(NCc1ccccc1)c1cc[n+](Cc2ccccc2)cc1`, the cell number change was -60.5%. Further, the AC50 under setting [2] was 0.259 µM [falling, full curve, poor fit].

For the molecule `COC(=O)c1cc2sccc2n1CC(=O)Nc1cc(OC)cc(OC)c1`, the cell number change turned out to be 38.7%. For the same molecule, under setting [2], the AC50 is 29.1 µM [rising, single point].

As to `CCOC(=O)c1cc(C#N)c(SC(C)C(=O)NC2CCCCC2)nc1C` (centres undefined), the cell number change is -22.3%. Also, under setting [2], the AC50 was 3.66 µM [falling, single point].

With `Cc1ccc(S(=O)(=O)N2CCCC2C(=O)N2CCCCCC2)cc1` (centres undefined), the cell number change is -85.9%. In addition, the half-maximal activity concentration (AC50) under setting [2] was 3.66 µM [falling, full curve]. The AC50 under setting [1] was 3.66 µM [falling, full curve].

For `CN1CCN(S(=O)(=O)c2cccc(C(=O)NC3(C)CCS(=O)(=O)C3)c2)CC1` (centres undefined), the cell number change was -61.4%. Further, the AC50 under setting [2] was 0.92 µM [falling, full curve]. The half-maximal activity concentration (AC50) under setting [1] is 0.92 µM [falling, full curve].

Take `CC(=O)Oc1ccc(C(=O)Nc2ccccc2C(=O)NCC(C)C)cc1`: the cell number change was 20.1%.

For the molecule `CNS(=O)(=O)c1cccc(C(=O)OCc2csc(-c3ccccc3)n2)c1`, the cell number change was 29.2%. Besides, the AC50 under setting [1] was 18.4 µM [rising, partial curve].

Regarding `CC(C)C(=O)NCCc1nc2ccccc2n1CCc1ccccc1`, the cell number change came to 1.27%. In addition, the AC50 under setting [1] was 1.84 µM [falling, partial curve].

Regarding `N#CC(C#N)=Cc1cccn1-c1ccc(C(=O)O)cc1`, the cell number change was 1.06%. Also, under setting [2], the half-maximal activity concentration (AC50) is 0.164 µM [rising, full curve]. Moreover, under setting [1], the AC50 was 0.116 µM [rising, full curve, poor fit].

For `CN(C)S(=O)(=O)N1CCCN(S(=O)(=O)N(C)C)CC1`, the cell number change is -29%. In addition, the AC50 under setting [1] was 2.06 µM [falling, full curve].

`O=C1C(Cl)=C(N2CCC(C(=O)O)CC2)C(=O)c2ccccc21`: the cell number change is -34.3%. Further, the concentration at half-maximal activity (AC50) under setting [2] is 18.4 µM [falling, single point]. The AC50 under setting [1] is 18.4 µM [falling, single point].

As for `CC[N+](C)(C)CCN(Cc1ccc(Cl)cc1)c1ccccn1`, the cell number change is -36.9%. Besides, the half-maximal activity concentration (AC50) under setting [2] is 29.1 µM [falling, single point].

Regarding `COc1ccc(C2C=C(c3ccccc3)Nc3nc(NC(C)=O)nn32)cc1` (centres undefined), the cell number change was found to be 4.89%. For the same molecule, the concentration at half-maximal activity (AC50) under setting [1] is 5.17 µM [rising, full curve].

Regarding `CC(=O)Nc1nc2c(c3c1c(=O)oc1ccccc13)CCCC2`, the cell number change was -15.3%. Moreover, under setting [1], the AC50 is 13 µM [falling, partial curve].

Turning to `COc1cc(OC)cc(C(=O)N[C@H](C(=O)NCCc2ccc(S(N)(=O)=O)cc2)C(C)C)c1`, the cell number change was 6.84%. The AC50 under setting [1] is 6.51 µM [falling, single point].

As for `COc1ccccc1NS(=O)(=O)c1ccc(-c2cnc(C3CC3)o2)cc1`, the cell number change was -7.79%. Also, under setting [1], the concentration at half-maximal activity (AC50) was 29.1 µM [rising, single point].

For the molecule `O=C1Nc2ccccc2/C1=C\C(=O)c1ccccc1`, the cell number change is -50%. The AC50 under setting [2] is 20.6 µM [falling, single point]. The half-maximal activity concentration (AC50) under setting [1] is 1.64 µM [falling, partial curve].

On to `CCOc1ccccc1OCC(=O)Nc1nnc(C)s1`, for which the cell number change came to 60.1%. Besides, the concentration at half-maximal activity (AC50) under setting [1] was 29.1 µM [rising, single point].

Consider `Cn1c(N2CCN(C(=O)NCc3ccccc3)CC2)nc2ccccc21`, for which the cell number change is -19.6%.

As for `Cc1cc(N2CCCC2)ccc1NC(=O)COc1ccccc1`, the cell number change worked out at 84.7%. The AC50 under setting [2] was 18.4 µM [rising, partial curve].

Take `O=C(CCS(=O)(=O)c1ccc2c(c1)NC(=O)CO2)NCCc1ccccc1`: the cell number change is 35.5%. In addition, the half-maximal activity concentration (AC50) under setting [2] is 6.51 µM [rising, partial curve].

As to `C=CCc1cc(Cl)ccc1OCCNCCOC`, the cell number change was 26.1%. Under setting [1], the AC50 is 0.13 µM [rising, full curve, poor fit].

On to `COc1cccc(NC(=O)Nc2ccc(Cc3ccncc3)cc2)c1`, for which the cell number change was 13.6%. For the same molecule, the half-maximal activity concentration (AC50) under setting [1] is 7.31 µM [rising, partial curve].

`C/C(=N\NS(=O)(=O)c1ccc(Cl)cc1)c1ccc(NC(=O)c2ccco2)cc1`: the cell number change is -3.73%.

Turning to `CC(C)C(OC(=O)CN1C(=O)c2ccccc2C1=O)C(=O)NC1CCCCC1` (centres undefined), the cell number change was -7.39%.

As for `CSc1ncccc1C(=O)OCc1ccc([N+](=O)[O-])cc1`, the cell number change is -9.65%.

Take `O=C(c1ccc(Br)c(S(=O)(=O)N2CCCCC2)c1)N1CCCCC1`: the cell number change worked out at 31.3%. The AC50 under setting [2] is 35.5 µM [rising, partial curve, poor fit].

In the case of `COc1ccc(NC(=O)Nc2cccc3ccccc23)cc1OC`, the cell number change was 36.7%. Besides, the AC50 under setting [2] was 23.1 µM [rising, partial curve, poor fit]. In addition, the AC50 under setting [1] was 1.3 µM [rising, full curve, poor fit].

Consider `Cc1cccc(S(=O)(=O)Nc2cccc3c2C(=O)c2ccccc2-3)c1`, for which the cell number change was -6.54%. The AC50 under setting [2] was 1.16 µM [rising, partial curve]. Besides, under setting [1], the half-maximal activity concentration (AC50) was 0.461 µM [rising, full curve].

For `Cc1ccc(CNC(=O)c2cn(C3CCCCC3)c(=O)c3c2c2ccccc2n3C)o1`, under setting [2], the half-maximal activity concentration (AC50) is 2.06 µM [falling, partial curve].

Turning to `COc1ccc(-n2c(CCC(=O)O)ccc2-c2ccc(F)cc2)c(OC)c1`, the cell number change is -2.13%. Moreover, the AC50 under setting [1] is 6.51 µM [rising, single point].

In the case of `CCN(CC)S(=O)(=O)c1ccc(-c2nnc3sc4cccc(C)c4n23)cc1`, the cell number change was -11.7%.

With `CCn1c(=NC(=O)CSC(C)=O)sc2ccccc21`, the cell number change was 39.9%. The AC50 under setting [2] was 20.6 µM [rising, single point].

Turning to `O=C(Nc1cccc(C(F)(F)F)c1)c1cccnc1`, the cell number change amounted to 0.446%.

Consider `CC1(C)C2CCC(C2)C1(C)NC(=O)CN1CCN(Cc2ccccc2)CC1` (centres undefined), for which the cell number change was 13%. Further, the AC50 under setting [1] is 0.651 µM [rising, full curve, poor fit].

As to `COC(=O)c1ccc(CSc2nc3c(c(=O)n2-c2ccc(C)cc2)SCC3)o1`, the cell number change was 42.3%. Moreover, the AC50 under setting [2] was 16.4 µM [rising, single point]. For the same molecule, the half-maximal activity concentration (AC50) under setting [1] was 23.1 µM [rising, partial curve].

`CCOc1ccc(CCNC(=O)COC(=O)Cc2c[nH]c3ccccc23)cc1OCC`: the cell number change is -71.4%. Also, under setting [2], the AC50 is 0.731 µM [falling, full curve]. Besides, under setting [1], the AC50 is 0.184 µM [falling, full curve].

Turning to `CCOC(=O)C1=NOC2C(=O)N(c3ccc(Cl)cc3Cl)C(=O)C12` (centres undefined), the cell number change was -8.49%. In addition, the AC50 under setting [1] was 0.00461 µM [falling, full curve, poor fit].

One may read the AC50 as the concentration at which the activity in the assay is half-maximal. Low readings indicate greater potency, high ones weaker potency.
